Laboratory results reported in patent US10647687B2, “Spiropyrazine derivatives as inhibitors of non-apoptotic regulated cell-death” (Helmholtz Zentrum München Deutsches Forschungszentrum für …, priority 2014, dated 2020).

test system: Pfa1 cells; test: Cellular toxicity, Pfa1 cells without TAM (Example B.5); type: cell-based, mouse; settings: TC50 divided by the IC50 of Example B.4
From the text: An estimate of the toxicity for compounds disclosed herein was obtained by using the same assay as described in Example B.4, but without the addition of TAM. […] Such TC50 values obtained for certain compounds disclosed herein, together with an approximate therapeutic window (estimated by dividing each TC50 by the corresponding IC50 determined from example B.4) are shown in Table 3 and Table 4.

SMILES | Therapeutic Window (approx. fold)
C#CCCCCCCCCC(=O)N1CCC2(CC1)Nc1cc(Cl)c(Cl)cc1N=C2NCc1cccc(Cl)c1 [F-26] | >50 fold

same assay, conditions: TC50 divided by the corresponding IC50 from example B.4 (Pfa1/TAM)

SMILES | Therapeutic Window (approx.. fold)
Clc1ccccc1CNC1=Nc2ccccc2NC12CCNCC2 [N-1] | >500 fold
Clc1cccc(CNC2=Nc3ccccc3NC23CCNCC3)c1 [N-2] | >500 fold
Clc1ccc(CNC2=Nc3ccccc3NC23CCNCC3)cc1 [N-3] | >5000 fold
Fc1cccc(CNC2=Nc3ccccc3NC23CCNCC3)c1 [N-5] | >200 fold
COc1cccc(CNC2=Nc3ccccc3NC23CCNCC3)c1 [N-14] | >100 fold
FC(F)(F)c1cccc(CNC2=Nc3ccccc3NC23CCNCC3)c1 [N-23] | >1000 fold
Clc1ccc(CNC2=Nc3ccccc3NC23CCNCC3)c(Cl)c1 [N-56] | >1000 fold
Fc1cc(Cl)ccc1CNC1=Nc2ccccc2NC12CCNCC2 [N-61] | >1000 fold
Clc1cccc(CCNC2=Nc3ccccc3NC23CCNCC3)c1 [N-79] | >50 fold
CN1CCC2(CC1)Nc1ccccc1N=C2NCc1cccc(Cl)c1 [N-90] | >500 fold
CC(=O)N1CCC2(CC1)Nc1ccccc1N=C2NCc1cccc(Cl)c1 [N-99] | >100 fold
Cc1cc2c(cc1C)NC1(CCNCC1)C(NCc1cccc(Cl)c1)=N2 [N-111] | >1000 fold
Clc1cccc(CNC2=Nc3cc(Cl)c(Cl)cc3NC23CCNCC3)c1 [N-115] | >200 fold
Fc1cc2c(cc1F)NC1(CCNCC1)C(NCc1cccc(Cl)c1)=N2 [N-117] | >20 fold
Clc1cccc(CNC2=Nc3ccccc3NC23CCCNCC3)c1 (stereo not drawn) [N-185] | >5 fold
CN1CCC2(CC1)Nc1ccccc1N=C2NCc1ccccc1 [N-204] | >50 fold
Clc1cc2c(cc1Cl)NC1(CCNCC1)C(NCc1ccccc1)=N2 [N-205] | >100 fold
c1ccc(CNC2=Nc3ccccc3NC23CCNCC3)cc1 [N-206] | >100 fold
Clc1cc2c(cc1Cl)NC1(CCNCC1)C(NCc1ccccc1Cl)=N2 [N-207] | >500 fold
Clc1ccc(CNC2=Nc3cc(Cl)c(Cl)cc3NC23CCNCC3)cc1 [N-208] | >500 fold
CN1CCC2(CC1)Nc1ccccc1N=C2NCc1ccccc1Cl [N-209] | >100 fold

SMILES | Therapeutic Window (approx.. fold)
Cc1cc2c(cc1C)NC1(CCNCC1)C(NCc1ccccc1)=N2 [N-210] | >1000 fold
Clc1ccc(CNC2=Nc3ccccc3NC23CCNCC3)cc1Cl [N-211] | >1000 fold
c1ccc(CNC2=Nc3ccccc3NC23CCCNCC3)cc1 (stereo not drawn) [N-212] | >10 fold
CN1CCC2(CC1)Nc1ccccc1N=C2NCc1ccc(Cl)cc1 [N-213] | >100 fold
Cc1cc2c(cc1C)NC1(CCNCC1)C(NCc1ccc(Cl)cc1)=N2 [N-214] | >1000 fold
CN1CCC2(CC1)Nc1ccccc1N=C2NCc1cccc(C(F)(F)F)c1 [N-215] | >500 fold
CCCCCCCC(=O)N1CCC2(CC1)Nc1ccccc1N=C2NCc1ccccc1 [N-216] | >20 fold
Cc1cc(C)cc(CNC2=Nc3ccccc3NC23CCNCC3)c1 [N-217] | >200 fold
CC(NC1=Nc2ccccc2NC12CCNCC2)c1ccccc1 (stereo not drawn) [N-218] | >100 fold
Clc1cccc(CNC2=Nc3cc4c(cc3NC23CCNCC3)OCCO4)c1 [N-219] | >50 fold
c1ccc(C(CNC2=Nc3ccccc3NC23CCNCC3)c2ccccc2)cc1 [N-220] | >200 fold
Fc1ccc(CNC2=Nc3ccccc3NC23CCNCC3)c(F)c1 [N-221] | >200 fold
CC(CCc1ccccc1)NC1=Nc2ccccc2NC12CCNCC2 (stereo not drawn) [N-222] | >200 fold
Fc1cc2c(cc1F)NC1(CCNCC1)C(NCc1ccccc1)=N2 [N-223] | >1000 fold
Cc1cccc(CNC2=Nc3cc(Cl)c(Cl)cc3NC23CCNCC3)c1 [N-224] | >1000 fold
c1ccc(CCCCNC2=Nc3ccccc3NC23CCNCC3)cc1 [N-225] | >50 fold
c1ccc(CCNC2=Nc3ccccc3NC23CCNCC3)cc1 [N-226] | >200 fold
CC(C)(C)c1ccc(CNC2=Nc3ccccc3NC23CCNCC3)cc1 [N-227] | >200 fold
c1ccc(CCCNC2=Nc3ccccc3NC23CCNCC3)cc1 [N-228] | >50 fold
CN1CCC2(CC1)Nc1cc(F)c(F)cc1N=C2NCc1ccccc1 [N-229] | >50 fold
CN1CCC2(CC1)Nc1cc(Cl)c(Cl)cc1N=C2NCc1ccccc1 [N-230] | >200 fold

SMILES | Therapeutic Window (approx.. fold)
Fc1cccc(F)c1CNC1=Nc2ccccc2NC12CCNCC2 [N-231] | >200 fold
Cc1cc2c(cc1C)NC1(CCNCC1)C(NCc1ccc(Cl)c(Cl)c1)=N2 [N-232] | >1000 fold
Cc1cc2c(cc1C)NC1(CCN(C)CC1)C(NCc1ccccc1)=N2 [N-233] | >50 fold
CCCCCCCCN1CCC2(CC1)Nc1ccccc1N=C2NCc1ccccc1 [N-234] | >50 fold
Cc1cccc(CNC2=Nc3cc(C)c(C)cc3NC23CCNCC3)c1 [N-235] | >20 fold
Clc1cc2c(cc1Cl)NC1(CCCNCC1)C(NCc1ccccc1)=N2 (stereo not drawn) [N-236] | >50 fold
CC1CC2(CCN1)Nc1ccccc1N=C2NCc1cccc(Cl)c1 (stereo not drawn) [N-239] | >10 fold
CC1CC2(CCN1)Nc1ccccc1N=C2NCc1ccccc1 (stereo not drawn) [N-240] | >50 fold
Cc1cc2c(cc1C)NC1(CCNCC1)C(NCc1cccc(C(F)(F)F)c1)=N2 [N-251] | >10 fold
CC1CN(C)CCC12Nc1ccccc1N=C2NCc1ccccc1 (stereo not drawn) [N-256] | >20 fold
Cc1cc2c(cc1C)NC1(CCNCC1)C(NCc1cccc(F)c1)=N2 [N-257] | >20 fold
Clc1ccc(CNC2=Nc3cc(Cl)c(Cl)cc3NC23CCNCC3)cc1Cl [N-258] | >2 fold
Fc1cc2c(cc1F)NC1(CCNCC1)C(NCc1ccccc1Cl)=N2 [N-259] | >50 fold
FC(F)(F)c1cccc(CNC2=Nc3cc(Cl)c(Cl)cc3NC23CCNCC3)c1 [N-260] | >20 fold
CCCCCCCCCCCCN1CCC2(CC1)Nc1ccccc1N=C2NCc1ccccc1 [N-261] | >20 fold
Cc1cc(C)cc(CNC2=Nc3cc(C)c(C)cc3NC23CCNCC3)c1 [N-262] | >10 fold
Clc1ccccc1CNC1=Nc2ccccc2NC12CCOCC2 [O/S-1] | >100 fold
Clc1cccc(CNC2=Nc3ccccc3NC23CCOCC3)c1 [O/S-2] | >50 fold
Clc1ccc(CNC2=Nc3ccccc3NC23CCOCC3)cc1 [O/S-3] | >50 fold
Fc1cccc(CNC2=Nc3ccccc3NC23CCOCC3)c1 [O/S-5] | >50 fold
